US10668040B2, “Treatment of urea cycle disorders in neonates and infants” (Horizon Therapeutics, LLC, priority 2017, dated 2020)
For at least one compound, name, drawing or mass did not settle the structure.

System: UCD patients
Test: Example 3: TEAEs, serious and non-serious adverse events
Type: in vivo
Details: Non-serious adverse events
Description: Sixteen newborn infants aged 0 to 27 days, and 10 infants and toddlers aged 28 days to 23 months received RAVICTI Oral Liquid administered just prior to breastfeeding or intake of formula or food. The recommended dosing regimen was 3-6 times per day depending on feeding schedule.
Number of Subjects with Treatment-Emergent Adverse Events (TEAEs), Serious TEAEs, Deaths, and Discontinuations Due to TEAEs
An adverse event (AE) is any untoward medical occurrence, whether or not the event is considered related to the study drug. A serious AE is any AE that: results in death; is life threatening; requires hospitalization or prolongation of existing hospitalization; results in disability/incapacity; is a congenital anomaly/birth defect; is an important medical event. TEAEs are defined as AEs with an onset date on or after the first dose of study medication until study discontinuation. The Investigator assessed the causal relationship of each TEAE to the study drug as not related, possibly related, or probably related. From the first dose of study treatment through 30 days after the final dose (mean [SD] duration of treatment was 9.13 [6.838] months).

O=C(CCCc1ccccc1)OCC(COC(=O)CCCc1ccccc1)OC(=O)CCCc1ccccc1 [RAVICTI, benzenebutanoic acid, 1′,1″-(1,2,3-propanetriyl) ester]
Plagiocephaly, Subjects Affected/Exposed (Age 0 to <2 Months): 2/16 (12.50%)
Platelet count increased, Subjects Affected/Exposed (Age 0 to <2 Months): 1/16 (6.25%)
Pneumonia, Subjects Affected/Exposed (Age 0 to <2 Months): 0/16 (0.00%)
Pneumothorax, Subjects Affected/Exposed (Age 0 to <2 Months): 1/16 (6.25%)
Post-tussive vomiting, Subjects Affected/Exposed (Age 0 to <2 Months): 1/16 (6.25%)
Protein deficiency, Subjects Affected/Exposed (Age 0 to <2 Months): 1/16 (6.25%)
Pyrexia, Subjects Affected/Exposed (Age 0 to <2 Months): 2/16 (12.50%)
Rash, Subjects Affected/Exposed (Age 0 to <2 Months): 5/16 (31.25%)
Red man syndrome, Subjects Affected/Exposed (Age 0 to <2 Months): 1/16 (6.25%)
Respiratory disorder, Subjects Affected/Exposed (Age 0 to <2 Months): 0/16 (0.00%)
Respiratory syncytial virus infection, Subjects Affected/Exposed (Age 0 to <2 Months): 1/16 (6.25%)
Rhinorrhoea, Subjects Affected/Exposed (Age 0 to <2 Months): 0/16 (0.00%)
Rhinovirus infection, Subjects Affected/Exposed (Age 0 to <2 Months): 1/16 (6.25%)
Seborrhoeic dermatitis, Subjects Affected/Exposed (Age 0 to <2 Months): 1/16 (6.25%)
Sinusitis, Subjects Affected/Exposed (Age 0 to <2 Months): 1/16 (6.25%)
Stoma site reaction, Subjects Affected/Exposed (Age 0 to <2 Months): 1/16 (6.25%)
Tachypnoea, Subjects Affected/Exposed (Age 0 to <2 Months): 1/16 (6.25%)
Teething, Subjects Affected/Exposed (Age 0 to <2 Months): 3/16 (18.75%)
Thrombocytopenia, Subjects Affected/Exposed (Age 0 to <2 Months): 2/16 (12.50%)
Thrombocytosis, Subjects Affected/Exposed (Age 0 to <2 Months): 2/16 (12.50%)
Tibia fracture, Subjects Affected/Exposed (Age 0 to <2 Months): 0/16 (0.00%)
Total Subjects Affected, Subjects Affected/Exposed (Age 0 to <2 Months): 16/16 (100.00%)
Transaminases increased, Subjects Affected/Exposed (Age 0 to <2 Months): 1/16 (6.25%)
Tremor, Subjects Affected/Exposed (Age 0 to <2 Months): 1/16 (6.25%)
Upper respiratory tract infection, Subjects Affected/Exposed (Age 0 to <2 Months): 5/16 (31.25%)
Urinary tract infection, Subjects Affected/Exposed (Age 0 to <2 Months): 2/16 (12.50%)
Use of accessory respiratory muscles, Subjects Affected/Exposed (Age 0 to <2 Months): 1/16 (6.25%)
Vascular disorders (Venous thrombosis limb), Subjects Affected/Exposed (Age 0 to <2 Months): 0/16 (0.00%)
Vesicoureteric reflux, Subjects Affected/Exposed (Age 0 to <2 Months): 0/16 (0.00%)
Viral infection, Subjects Affected/Exposed (Age 0 to <2 Months): 1/16 (6.25%)
Vomiting, Subjects Affected/Exposed (Age 0 to <2 Months): 5/16 (31.25%)
Weight decreased, Subjects Affected/Exposed (Age 0 to <2 Months): 1/16 (6.25%)
Agitation, Subjects Affected/Exposed (Age 2 Months to <2 Years): 0/10 (0.00%)
Alanine aminotransferase increased, Subjects Affected/Exposed (Age 2 Months to <2 Years): 0/10 (0.00%)
Amino acid level decreased, Subjects Affected/Exposed (Age 2 Months to <2 Years): 1/10 (10.00%)
Amino acid level increased, Subjects Affected/Exposed (Age 2 Months to <2 Years): 0/10 (0.00%)
Ammonia increased, Subjects Affected/Exposed (Age 2 Months to <2 Years): 1/10 (10.00%)
Anaemia, Subjects Affected/Exposed (Age 2 Months to <2 Years): 1/10 (10.00%)
Angular cheilitis, Subjects Affected/Exposed (Age 2 Months to <2 Years): 0/10 (0.00%)
Anion gap increased, Subjects Affected/Exposed (Age 2 Months to <2 Years): 0/10 (0.00%)
Apnoea, Subjects Affected/Exposed (Age 2 Months to <2 Years): 1/10 (10.00%)
Arthropod bite, Subjects Affected/Exposed (Age 2 Months to <2 Years): 0/10 (0.00%)
Aspartate aminotransferase increased, Subjects Affected/Exposed (Age 2 Months to <2 Years): 0/10 (0.00%)
Blood bicarbonate decreased, Subjects Affected/Exposed (Age 2 Months to <2 Years): 0/10 (0.00%)
Blood urea decreased, Subjects Affected/Exposed (Age 2 Months to <2 Years): 0/10 (0.00%)
Body height below normal, Subjects Affected/Exposed (Age 2 Months to <2 Years): 0/10 (0.00%)
Candida infection, Subjects Affected/Exposed (Age 2 Months to <2 Years): 0/10 (0.00%)
Carbon dioxide decreased, Subjects Affected/Exposed (Age 2 Months to <2 Years): 1/10 (10.00%)
Cardiac disorders (Tachycardia), Subjects Affected/Exposed (Age 2 Months to <2 Years): 0/10 (0.00%)
Catheter site rash, Subjects Affected/Exposed (Age 2 Months to <2 Years): 0/10 (0.00%)
Conjunctivitis, Subjects Affected/Exposed (Age 2 Months to <2 Years): 1/10 (10.00%)
Constipation, Subjects Affected/Exposed (Age 2 Months to <2 Years): 2/10 (20.00%)
Cough, Subjects Affected/Exposed (Age 2 Months to <2 Years): 2/10 (20.00%)
Croup infectious, Subjects Affected/Exposed (Age 2 Months to <2 Years): 1/10 (10.00%)
Dacryostenosis congenital, Subjects Affected/Exposed (Age 2 Months to <2 Years): 1/10 (10.00%)
Decreased appetite, Subjects Affected/Exposed (Age 2 Months to <2 Years): 0/10 (0.00%)
Dehydration, Subjects Affected/Exposed (Age 2 Months to <2 Years): 0/10 (0.00%)
Dermatitis diaper, Subjects Affected/Exposed (Age 2 Months to <2 Years): 1/10 (10.00%)
Device occlusion, Subjects Affected/Exposed (Age 2 Months to <2 Years): 0/10 (0.00%)
Diarrhoea, Subjects Affected/Exposed (Age 2 Months to <2 Years): 1/10 (10.00%)
Drug withdrawal syndrome, Subjects Affected/Exposed (Age 2 Months to <2 Years): 0/10 (0.00%)
Dysphagia, Subjects Affected/Exposed (Age 2 Months to <2 Years): 0/10 (0.00%)
Ear and labyrinth disorders (Excessive cerumen production), Subjects Affected/Exposed (Age 2 Months to <2 Years): 1/10 (10.00%)
Ear infection, Subjects Affected/Exposed (Age 2 Months to <2 Years): 0/10 (0.00%)
Eczema, Subjects Affected/Exposed (Age 2 Months to <2 Years): 1/10 (10.00%)
Eye discharge, Subjects Affected/Exposed (Age 2 Months to <2 Years): 0/10 (0.00%)
Feeding disorder of infancy or early childhood, Subjects Affected/Exposed (Age 2 Months to <2 Years): 0/10 (0.00%)
Flatulence, Subjects Affected/Exposed (Age 2 Months to <2 Years): 0/10 (0.00%)
Gamma-glutamyltransferase increased, Subjects Affected/Exposed (Age 2 Months to <2 Years): 0/10 (0.00%)
Gastroenteritis, Subjects Affected/Exposed (Age 2 Months to <2 Years): 1/10 (10.00%)
Gastrointestinal viral infection, Subjects Affected/Exposed (Age 2 Months to <2 Years): 0/10 (0.00%)
Gastrooesophageal reflux disease, Subjects Affected/Exposed (Age 2 Months to <2 Years): 0/10 (0.00%)
Gross motor delay, Subjects Affected/Exposed (Age 2 Months to <2 Years): 1/10 (10.00%)
Hepatic enzyme increased, Subjects Affected/Exposed (Age 2 Months to <2 Years): 0/10 (0.00%)
Hepatobiliary disorders (Hepatic calcification), Subjects Affected/Exposed (Age 2 Months to <2 Years): 0/10 (0.00%)
Hyperammonaemia, Subjects Affected/Exposed (Age 2 Months to <2 Years): 0/10 (0.00%)
Hypophagia, Subjects Affected/Exposed (Age 2 Months to <2 Years): 2/10 (20.00%)
Immune System Disorders (Seasonal allergy), Subjects Affected/Exposed (Age 2 Months to <2 Years): 1/10 (10.00%)
Irritability, Subjects Affected/Exposed (Age 2 Months to <2 Years): 0/10 (0.00%)
Lethargy, Subjects Affected/Exposed (Age 2 Months to <2 Years): 0/10 (0.00%)
Leukocytosis, Subjects Affected/Exposed (Age 2 Months to <2 Years): 0/10 (0.00%)
Lower respiratory tract infection, Subjects Affected/Exposed (Age 2 Months to <2 Years): 0/10 (0.00%)
Lymphocytosis, Subjects Affected/Exposed (Age 2 Months to <2 Years): 0/10 (0.00%)
Medical device site haemorrhage, Subjects Affected/Exposed (Age 2 Months to <2 Years): 0/10 (0.00%)
Metabolic acidosis, Subjects Affected/Exposed (Age 2 Months to <2 Years): 2/10 (20.00%)
Microcytic anaemia, Subjects Affected/Exposed (Age 2 Months to <2 Years): 0/10 (0.00%)
Nail ridging, Subjects Affected/Exposed (Age 2 Months to <2 Years): 1/10 (10.00%)
Nasopharyngitis, Subjects Affected/Exposed (Age 2 Months to <2 Years): 2/10 (20.00%)
Nephrolithiasis, Subjects Affected/Exposed (Age 2 Months to <2 Years): 0/10 (0.00%)
Neutropenia, Subjects Affected/Exposed (Age 2 Months to <2 Years): 0/10 (0.00%)
Ocular hyperaemia, Subjects Affected/Exposed (Age 2 Months to <2 Years): 0/10 (0.00%)
Oral candidiasis, Subjects Affected/Exposed (Age 2 Months to <2 Years): 0/10 (0.00%)
Oropharyngeal pain, Subjects Affected/Exposed (Age 2 Months to <2 Years): 0/10 (0.00%)
Otitis media acute, Subjects Affected/Exposed (Age 2 Months to <2 Years): 0/10 (0.00%)
Otitis media, Subjects Affected/Exposed (Age 2 Months to <2 Years): 2/10 (20.00%)
Pharyngitis, Subjects Affected/Exposed (Age 2 Months to <2 Years): 1/10 (10.00%)
Plagiocephaly, Subjects Affected/Exposed (Age 2 Months to <2 Years): 0/10 (0.00%)
Platelet count increased, Subjects Affected/Exposed (Age 2 Months to <2 Years): 0/10 (0.00%)
Pneumonia, Subjects Affected/Exposed (Age 2 Months to <2 Years): 1/10 (10.00%)
Pneumothorax, Subjects Affected/Exposed (Age 2 Months to <2 Years): 0/10 (0.00%)
Post-tussive vomiting, Subjects Affected/Exposed (Age 2 Months to <2 Years): 0/10 (0.00%)
Protein deficiency, Subjects Affected/Exposed (Age 2 Months to <2 Years): 0/10 (0.00%)
Pyrexia, Subjects Affected/Exposed (Age 2 Months to <2 Years): 2/10 (20.00%)
Rash, Subjects Affected/Exposed (Age 2 Months to <2 Years): 2/10 (20.00%)
Red man syndrome, Subjects Affected/Exposed (Age 2 Months to <2 Years): 0/10 (0.00%)
Respiratory disorder, Subjects Affected/Exposed (Age 2 Months to <2 Years): 1/10 (10.00%)
Rhinorrhoea, Subjects Affected/Exposed (Age 2 Months to <2 Years): 1/10 (10.00%)
Seborrhoeic dermatitis, Subjects Affected/Exposed (Age 2 Months to <2 Years): 1/10 (10.00%)
Sinusitis, Subjects Affected/Exposed (Age 2 Months to <2 Years): 1/10 (10.00%)
Stoma site reaction, Subjects Affected/Exposed (Age 2 Months to <2 Years): 1/10 (10.00%)
Tachypnoea, Subjects Affected/Exposed (Age 2 Months to <2 Years): 0/10 (0.00%)
Teething, Subjects Affected/Exposed (Age 2 Months to <2 Years): 1/10 (10.00%)
Thrombocytopenia, Subjects Affected/Exposed (Age 2 Months to <2 Years): 0/10 (0.00%)
Thrombocytosis, Subjects Affected/Exposed (Age 2 Months to <2 Years): 0/10 (0.00%)
Tibia fracture, Subjects Affected/Exposed (Age 2 Months to <2 Years): 1/10 (10.00%)
Total Subjects Affected, Subjects Affected/Exposed (Age 2 Months to <2 Years): 8/10 (80.00%)
Transaminases increased, Subjects Affected/Exposed (Age 2 Months to <2 Years): 0/10 (0.00%)
Tremor, Subjects Affected/Exposed (Age 2 Months to <2 Years): 0/10 (0.00%)
Upper respiratory tract infection, Subjects Affected/Exposed (Age 2 Months to <2 Years): 4/10 (40.00%)
Urinary tract infection, Subjects Affected/Exposed (Age 2 Months to <2 Years): 1/10 (10.00%)
Use of accessory respiratory muscles, Subjects Affected/Exposed (Age 2 Months to <2 Years): 0/10 (0.00%)
Vascular disorders (Venous thrombosis limb), Subjects Affected/Exposed (Age 2 Months to <2 Years): 1/10 (10.00%)
Vesicoureteric reflux, Subjects Affected/Exposed (Age 2 Months to <2 Years): 1/10 (10.00%)
Viral infection, Subjects Affected/Exposed (Age 2 Months to <2 Years): 1/10 (10.00%)
Vomiting, Subjects Affected/Exposed (Age 2 Months to <2 Years): 4/10 (40.00%)
Weight decreased, Subjects Affected/Exposed (Age 2 Months to <2 Years): 0/10 (0.00%)
